The source of these data is article PMC4594037.

Protein sequences, listed by entry. Tags and fused reporters are not part of them.
UniProt Q62048: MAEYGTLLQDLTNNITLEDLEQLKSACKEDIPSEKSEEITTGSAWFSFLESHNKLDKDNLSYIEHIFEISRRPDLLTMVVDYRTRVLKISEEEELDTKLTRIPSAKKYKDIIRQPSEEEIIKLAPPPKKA
UniProt P18654: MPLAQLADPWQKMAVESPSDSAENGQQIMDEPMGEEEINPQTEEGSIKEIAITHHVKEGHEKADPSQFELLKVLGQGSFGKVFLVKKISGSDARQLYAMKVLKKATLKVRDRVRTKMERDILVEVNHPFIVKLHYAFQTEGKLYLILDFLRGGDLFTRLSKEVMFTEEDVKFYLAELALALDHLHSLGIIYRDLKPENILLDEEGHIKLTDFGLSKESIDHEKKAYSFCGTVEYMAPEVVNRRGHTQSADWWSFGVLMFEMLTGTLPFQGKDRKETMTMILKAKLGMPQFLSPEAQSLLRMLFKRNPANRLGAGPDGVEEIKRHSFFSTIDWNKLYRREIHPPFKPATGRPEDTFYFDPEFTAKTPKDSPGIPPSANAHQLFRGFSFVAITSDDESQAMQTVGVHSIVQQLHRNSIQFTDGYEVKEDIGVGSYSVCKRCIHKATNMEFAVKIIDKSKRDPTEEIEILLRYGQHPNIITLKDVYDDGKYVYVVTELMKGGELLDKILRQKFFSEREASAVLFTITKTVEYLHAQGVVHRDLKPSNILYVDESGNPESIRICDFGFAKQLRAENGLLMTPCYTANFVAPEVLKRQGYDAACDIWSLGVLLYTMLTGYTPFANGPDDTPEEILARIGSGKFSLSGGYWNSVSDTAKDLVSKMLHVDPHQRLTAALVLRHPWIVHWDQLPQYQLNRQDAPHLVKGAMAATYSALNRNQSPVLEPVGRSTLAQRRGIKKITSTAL
UniProt P63085: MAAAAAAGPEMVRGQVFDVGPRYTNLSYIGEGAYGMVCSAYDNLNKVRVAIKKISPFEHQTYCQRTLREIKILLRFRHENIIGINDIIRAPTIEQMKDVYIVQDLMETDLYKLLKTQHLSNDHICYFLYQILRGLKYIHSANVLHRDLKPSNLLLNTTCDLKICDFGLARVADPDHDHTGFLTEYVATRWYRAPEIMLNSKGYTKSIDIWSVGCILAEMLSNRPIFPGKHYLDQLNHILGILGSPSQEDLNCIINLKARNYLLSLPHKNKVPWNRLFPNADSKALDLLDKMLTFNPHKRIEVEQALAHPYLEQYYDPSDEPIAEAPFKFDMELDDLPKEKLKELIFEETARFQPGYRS
UniProt Q63844: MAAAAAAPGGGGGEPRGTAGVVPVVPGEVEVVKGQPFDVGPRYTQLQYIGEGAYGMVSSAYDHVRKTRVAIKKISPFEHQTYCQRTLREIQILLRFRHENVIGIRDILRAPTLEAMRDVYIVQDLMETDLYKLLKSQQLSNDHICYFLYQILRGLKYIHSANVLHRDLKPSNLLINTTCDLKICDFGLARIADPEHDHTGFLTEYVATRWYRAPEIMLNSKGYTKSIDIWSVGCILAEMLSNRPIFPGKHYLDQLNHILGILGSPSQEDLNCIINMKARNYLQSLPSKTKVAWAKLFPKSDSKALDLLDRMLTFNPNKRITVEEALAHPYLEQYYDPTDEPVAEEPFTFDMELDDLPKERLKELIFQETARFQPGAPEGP

No constants are given. Whether binding was seen depends on the method and setting. In cells and extracts the contact can be indirect. Some results given as binding are weak or reduced against the parent protein; the word gives no strength.

B1: PLD1 (enzyme, UniProt Q9Z280 1-1074)
chain: MSLKSETRVNTSTLQKIAADMSNLIENLDTRELHFEGEEVEYDASPGDPKAQEGCIPFSSIYNTQGFKEPNIQTYLSGCPIKAQVLEVERFTSTSRVPSINLYTIELTHGEFTWQVKRKFKHFQEFHRELLKYKAFIRIPIPTKRHTFRRQNVKEEPREMPSLPRSSENAIQEEQFFGRRKQLEDYLTKILKMPMYRNYHATTEFLDVSQLSFIHDLGPKGLEGMIMKRSGGHRIPGVNCCGHGRACYRWSKRWLIVKDSFLLYMKPDSGAIAFVLLVDKEFRVKVGRKETETKYGLRIDNLSRTLILKCNSYRHARWWGGAIEEFIRKHGADFLKDHRFGSYAALHENTLAKWYVNAKGYFEDIANAMEEASEEIFITDWWLSPEIFLKRPVVEGNRWRLDCILKRKAQQGVRIFIMLYKEVELALGINSEYSKRTLMRLHPNIKVMRHPDHVSSSVYLWAHHEKLVIIDQSVAFVGGIDLAYGRWDDNEHRLTDVGSVKRVTSGLSLGSLTAASVESMESLSLKDKHEFHKKEPISKIVDETDMKLKGIGKSRKFSKFSLYRQLHRHHLHNADSISSIDSTSSYFSHCRSHQNLIHGLKPHLKLFHPSSESEQGLTRHSTDTGSIRSVQTGVGELHGETRFWHGKDYCNFVFKDWVQLDKPFADFIDRYSTPRMPWHDIGSVVHGKAARDVARHFIQRWNFTKIMKPKYRSLSYPFLLPKSQATAHELRYQVPGAVPAKVQLLRSAADWSAGIKHHEESIHAAYIHVIENSKHYIYIENQFFISCADDKVVFNKVGDRIAQRILKAHREGQRYRVYIVIPLLPGFEGDISTGGGNALQAIMHFNYRTMCRGESSILEQLKPELGNKWINYISFCGLRTHAELEGNLVTELIYVHSKLLIADDNTVIIGSANINDRSMLGKRDSEMAVIVQDTETVPSVMDGKEYQAGRFARDLRLECFRLVLGYLSDPSEDLQDPVSDKFFKEIWVSTAARNATIYDKVFRCLPNDEVHNLIQLRDFINKPILAKEDALRAEEELRKIRGFLVQFPLYFLSEENLLPSVGTKEAIVPMEVWT

This test has as its target PEA15 (mouse (endogenous in cortical neurons)) (UniProt Q62048). Description: co-IP; endogenous PEA15 immunoprecipitated from lysates of 3 DIV mouse cortical neurons, untreated or treated 15 min with 100 ng/mL BDNF; 500 ug total protein; lysis buffer 50 mM Hepes, 3 mM EGTA, 3 mM CaCl2, 3 mM MgCl2, 80 mM KCl, 0.1% Triton X-100, 0.1% sodium deoxycholate; blots with anti-PLD1, anti-RSK2, anti-ERK1/2.
Turning to “RSK2 (from UniProt P18654 1-740) (enzyme)”, the binding result was “binds”.
For the molecule “ERK2 (from UniProt P63085 1-358) (enzyme)”, the binding result is “binds”.
With “ERK1 (from UniProt Q63844 1-380) (enzyme)” the entry was “binds”; with B1, “binds”.
